From PubChem BioAssay AID540276 (National Center for Advancing Translational Sciences (NCATS), 2011)
Among all 300,000 compounds or so, about 5,400 (1.8%) were called active. Inconclusive means that the source gave no clear call. Such entries were picked first, then a sample of the others. Calls come from the whole dose curve; tested in HEK293 cells. Potencies beside an inconclusive call are fits to weak or partial responses and may not hold up.
% is set by controls: 0 for no effect and ±100 for the full control effect; potency is the fitted concentration of half-maximal effect.

Assay: qHTS for inhibitors of binding or entry into cells for Marburg Virus
Details: Marburg virus pseudotyped entry inhibition, cell reporter; activity change, negative = inhibition: at 37.8 µM (top of the series) unless noted
For `C=CCOc1ccccc1CNc1ccc2c(c1)OCCO2`, the Potency was inconclusive: 2.82 µM [inhibitor, full curve, poor fit]. For `COc1ccc(C2C(C(C)=O)=C(O)C(=O)N2c2ccccn2)cc1` (stereo not given), the Potency was inconclusive: 35.5 µM [activator, single point]. With `N#CC1=C2N=C(N)c3ccccc3N2C2=C(C(=O)CCC2)C1c1ccc(Cl)cc1` (stereo not given) the “activity change, negative = inhibition” value was inactive: -30.2%. With `O=C(c1ccc(F)cc1F)N1CCC(c2nc(-c3ccc(S(=O)(=O)N4CCCC4)cc3)no2)CC1` the Potency was inconclusive: 3.98 µM [activator, single point]. With `Cc1cccc(C)c1OCC(N)C(C)C` (stereo not given) the Potency was inconclusive: 8.91 µM [inhibitor, partial curve, poor fit]. For `O=C(NCc1ccccc1)C(c1ccco1)N(C(=O)c1cnccn1)c1ccc(F)cc1` (stereo not given), the Potency was inconclusive: 3.16 µM [inhibitor, single point]. With `CC(O)C(NC=C1C(=O)OC(C)(C)OC1=O)C(=O)O` (stereo not given) the Potency was inconclusive: 0.562 µM [activator, full curve, poor fit]. With `N/C(COc1cc(Cl)cc(Cl)c1)=N\O` the Potency was inconclusive: 15.8 µM [inhibitor, partial curve]. For `Clc1ccc(Nc2nc(NCCN3CCOCC3)nc(N3CCOCC3)n2)cc1`, the Potency was active: 2.82 µM. In the case of `CCC(C)NC(=O)Cn1cccc1C(=O)c1ccccc1` (stereo not given), the Potency is reported as inconclusive: 0.708 µM [inhibitor, partial curve]. For `COc1cc(/C=C/C(=O)N2CCCc3ccccc32)cc(OC)c1OC`, the Potency was inconclusive: 35.5 µM [inhibitor, partial curve, poor fit]. With `CCC(=O)Nc1nnc(C)s1` the “activity change, negative = inhibition” value was inactive: -3.46%. With `Cc1ccc(CN2CC(C(=O)N3CCN(c4ccccc4O)CC3)CC2=O)cc1` (stereo not given) the “activity change, negative = inhibition” value was inactive: 6.97%. In the case of `CCNC(=S)N(Cc1cccs1)Cc1cc2cc(OCC)ccc2[nH]c1=O`, the Potency is reported as inconclusive: 0.282 µM [inhibitor, full curve, poor fit]. In the case of `Cc1ccccc1NS(=O)(=O)c1cc(C(=O)NCCC2=CCCCC2)ccc1Cl`, the Potency is reported as inconclusive: 0.651 µM [inhibitor, partial curve, poor fit]. In the case of `Cc1noc(C)c1COC(=O)c1ccc2c(c1)OCO2`, the “activity change, negative = inhibition” value is reported as inactive: 0.0056%. With `COC(=O)C1=CN(c2cccc(Cl)c2)C=C(C(=O)OC)C1c1cccc(OC)c1` the Potency was inconclusive: 17.8 µM [inhibitor, partial curve, poor fit]. For `Clc1cccc(CN2CCc3c([nH]c4ccccc34)C2)c1`, the Potency was active: 8.91 µM. With `O=C(Nc1ccc2c(c1)OCO2)c1ccc[n+]([O-])c1` the Potency was inconclusive: 0.92 µM [inhibitor, full curve, poor fit]. With `O=C(N/N=C/c1cccnc1)c1cccc(S(=O)(=O)Nc2cccc(Cl)c2)c1` the Potency was inconclusive: 0.501 µM [activator, full curve, poor fit]. For `CCN(CC)c1cc(C)c2cc(NC(=O)c3cccs3)ccc2n1`, the Potency was inconclusive: 35.5 µM [inhibitor, single point]. In the case of `O=S(=O)(NCc1ccccc1)c1cccc2nonc12`, the Potency is reported as inconclusive: 7.3 µM [inhibitor, single point]. In the case of `Cc1c(-c2ccccc2)[nH]n2c(=O)c3c(nc12)CCCC3`, the Potency is reported as inconclusive: 0.731 µM [activator, full curve, poor fit]. In the case of `COCCNC(=O)/C(C#N)=C\c1ccc(CNC(=O)C(=O)Nc2ccc(C)c(C)c2)o1`, the “activity change, negative = inhibition” value is reported as inactive: 0.829%. In the case of `COc1ccccc1NC(=S)NNC(=O)c1nn(C)cc1Cl`, the “activity change, negative = inhibition” value is reported as inactive: 5.52% [at 46.1 µM]. With `COc1ccc(C(Nc2ccccn2)c2c(NC(=O)c3ccco3)sc(C)c2C)cc1OC` (stereo not given) the “activity change, negative = inhibition” value was inactive: -14.9%. With `Cc1cc(NC(=O)CSc2nc3c(cnn3-c3cccc(Cl)c3)c(=O)[nH]2)no1` the Potency was inconclusive: 6.31 µM [inhibitor, single point]. With `COC(=O)c1ccccc1NC(=O)COC(=O)/C=C/c1ccco1` the Potency was inconclusive: 35.5 µM [inhibitor, single point]. In the case of `COc1ccccc1OCC(=O)N(Cc1nc(-c2ccccc2)no1)C1CCCCC1`, the Potency is reported as inconclusive: 35.5 µM [inhibitor, single point]. With `COc1cccc(N2CCN(C(=S)Nc3ccccc3OC)CC2)c1` the “activity change, negative = inhibition” value was inactive: 14.7%. In the case of `CC(C)(C)C(=O)NC1=NCCS1`, the Potency is reported as inconclusive: 2.51 µM [inhibitor, partial curve, poor fit]. For `FC(F)(F)c1cccc(-c2cc3ccccc3nc2N2CCCC2)c1`, the Potency was inconclusive: 5.62 µM [activator, single point]. In the case of `COc1ccc(N2CCN(S(=O)(=O)c3ccc(-c4cc(C)no4)s3)CC2)cc1`, the Potency is reported as inconclusive: 3.55 µM [inhibitor, single point]. For `C/C=C/Cn1c(N2CCCCCC2)nc2c1c(=O)[nH]c(=O)n2C`, the “activity change, negative = inhibition” value was inactive: 3.1%. With `COc1ccccc1NS(=O)(=O)c1cccc(C(=O)NCC2(N(C)C)CCCCC2)c1` the Potency was inconclusive: 22.4 µM [inhibitor, partial curve, poor fit]. For `Cc1ccc(C)c(CN2C(=O)c3ccccc3S(=O)(=O)c3ccc(C(=O)Nc4cc(F)ccc4F)cc32)c1`, the Potency was inconclusive: 12.6 µM [inhibitor, single point]. For `O=C(Cc1ccc(Cl)c(Cl)c1)N1CCCCC1CN1CCCC1` (stereo not given), the Potency was active: 8.91 µM. For `O=C(Nc1cc(F)c(Br)cc1F)c1ccc(Cl)cc1`, the “activity change, negative = inhibition” value was inactive: -20% [at 46.1 µM]. For `O=C(Nc1nc2n(n1)C(c1ccccc1)C=C(c1ccccc1)N2)c1ccccc1` (stereo not given), the “activity change, negative = inhibition” value was inactive: -5.93% [at 46.1 µM]. For `Cc1ccc2nc(Cl)c3cc(C(=O)NCCCN4CCCC4)sc3c2c1`, the Potency was active: 10 µM. For `CCOc1ccc(NC(=O)CN2CCN(CC(=O)Nc3ccc(F)cc3)CC2)cc1`, the Potency was inconclusive: 11.2 µM [activator, partial curve]. For `CCCCNCc1ccc(OCc2ccc(Cl)nc2)c(OC)c1`, the Potency was inconclusive: 6.31 µM [inhibitor, partial curve]. With `c1ccc(-c2nc(-c3cccs3)[nH]c2-c2ccccc2)cc1` the Potency was inconclusive: 20.6 µM [inhibitor, single point]. In the case of `CC1=Nc2ccccc2N=C(NC(=O)CN2CCN(c3ccc(F)cc3)CC2)C1c1ccccc1` (stereo not given), the Potency is reported as inconclusive: 35.5 µM [inhibitor, single point]. In the case of `O=C(Nc1cccc(C(=O)O)c1)Nc1ccc2c(c1)OCO2`, the Potency is reported as inconclusive: 0.282 µM [inhibitor, full curve, poor fit]. With `O=C(Cc1ccccc1)Nn1c(-c2ccccc2)nc2ccccc2c1=O` the “activity change, negative = inhibition” value was inactive: 29.8%. In the case of `CN(C)c1ccc(/C=[N+](\[O-])C2N(c3ccccc3)C(=S)SC2(C)C)cc1` (stereo not given), the Potency is reported as inconclusive: 0.501 µM [activator, full curve, poor fit]. For `Cc1ccnc(N/C=C(/NC(=O)c2ccccc2)C(=O)N/N=C\c2ccc(F)cc2)n1`, the “activity change, negative = inhibition” value was inactive: -5.35%. With `Cc1cc(/C=C2/NC(=O)NC2=O)c(C)n1-c1ccncc1` the “activity change, negative = inhibition” value was inactive: 5.3% [at 46.1 µM]. With `CCc1cccc(C)c1NC(=O)c1ccc(CN2CCc3ccccc3C2)cc1` the Potency was inconclusive: 35.5 µM [inhibitor, single point]. For `N#CCc1nc2ccc(S(=O)(=O)N3CCOCC3)cc2s1`, the “activity change, negative = inhibition” value was inactive: -1.11%. For `Cc1cccc(CN2C(=O)c3ccccc3Sc3ccc(C(=O)NCCN4CCOCC4)cc32)c1`, the Potency was inconclusive: 11.2 µM [inhibitor, partial curve, poor fit]. In the case of `COc1cc(NC(=O)COC(=O)CO/N=C(\C)c2ccc3c(c2)OCO3)cc(OC)c1OC`, the “activity change, negative = inhibition” value is reported as inactive: 20.1%. In the case of `C/C(=N/NC(=O)c1ccc2c(c1)OCCO2)c1ccc([N+](=O)[O-])cc1`, the “activity change, negative = inhibition” value is reported as inactive: 10.8% [at 46.1 µM]. With `COc1ccc2c(Cl)c(-c3nnc(SCC(=O)c4ccccc4)n3C)sc2c1` the Potency was inconclusive: 35.5 µM [inhibitor, single point]. In the case of `c1ccc(-n2ncc3c(NCc4cccs4)ncnc32)cc1`, the Potency is reported as inconclusive: 0.92 µM [activator, full curve]. In the case of `Brc1ccccc1C1CC(c2ccccc2)=Nc2ccccc2N1` (stereo not given), the Potency is reported as inconclusive: 25.1 µM [inhibitor, single point]. In the case of `c1ccc(-c2cc3ncc4c(n3n2)-c2ccccc2OC4)cc1`, the Potency is reported as inconclusive: 12.6 µM [activator, partial curve, poor fit]. In the case of `CC(C)Cn1c(=O)c2c(nc3n2CCCN3CCc2ccccc2)n(C)c1=O`, the Potency is reported as inconclusive: 11.2 µM [inhibitor, partial curve, poor fit]. In the case of `CN1C(C)(C)CC(=NOC(=O)c2ccccc2)CC1(C)C`, the “activity change, negative = inhibition” value is reported as inactive: -14.4%. For `O=C(NCc1ccccc1)NCc1cccs1`, the Potency was inconclusive: 10 µM [activator, partial curve, poor fit]. For `Cc1cc(NC(=O)c2sccc2C)n(-c2cccc(Cl)c2)n1`, the Potency was inconclusive: 1.26 µM [activator, full curve, poor fit]. With `CCOC(=O)C1=C(C)NC(=S)N(C(C)=O)C1c1ccc(Cl)cc1` (stereo not given) the Potency was inconclusive: 29.1 µM [inhibitor, single point]. In the case of `CN1CCc2c(OCC(=O)N3CCCc4ccccc43)cccc2C1=O`, the Potency is reported as active: 3.16 µM. For `COC(=O)C1=C(C)OC(N)=C(C#N)[C@H]1c1ccc(OC)c(OC)c1OC`, the “activity change, negative = inhibition” value was inactive: 6.84%. With `O=C(CN1C(=O)c2ccccc2S1(=O)=O)c1ccc(Cl)cc1Cl` the Potency was active: 0.282 µM. In the case of `COc1ccc2[nH]c(=O)c(C(c3nnnn3C3CCCC3)N(C)C3CCCCC3)cc2c1` (stereo not given), the Potency is reported as active: 5.17 µM. With `Fc1ccc(C(CCNCc2ccccn2)c2ccc(Cl)cc2)cc1` (stereo not given) the Potency was inconclusive: 10 µM [inhibitor, partial curve, poor fit]. In the case of `O=C(NC1CCCCC1)C(c1ccco1)N(Cc1cccs1)C(=O)Cn1nnc2ccccc21` (stereo not given), the Potency is reported as “inactive”. In the case of `CCc1[nH]nc2c1C(c1ccc(Br)s1)C(C#N)=C(N)O2` (stereo not given), the Potency is reported as inconclusive: 12.6 µM [inhibitor, single point].
